Reference: article doi:10.1101/2025.06.18.660225
These are yes or no findings as the source states them, for the method shown. In cells and extracts the contact can be indirect. Here binding means that the protein was enriched with, or labelled near, the bait; the list need not be complete. For some of these results: No binding means not detected with the bait.

The chains behind the UniProt entries cited, without tags or fusion partners.
UniProt P32639: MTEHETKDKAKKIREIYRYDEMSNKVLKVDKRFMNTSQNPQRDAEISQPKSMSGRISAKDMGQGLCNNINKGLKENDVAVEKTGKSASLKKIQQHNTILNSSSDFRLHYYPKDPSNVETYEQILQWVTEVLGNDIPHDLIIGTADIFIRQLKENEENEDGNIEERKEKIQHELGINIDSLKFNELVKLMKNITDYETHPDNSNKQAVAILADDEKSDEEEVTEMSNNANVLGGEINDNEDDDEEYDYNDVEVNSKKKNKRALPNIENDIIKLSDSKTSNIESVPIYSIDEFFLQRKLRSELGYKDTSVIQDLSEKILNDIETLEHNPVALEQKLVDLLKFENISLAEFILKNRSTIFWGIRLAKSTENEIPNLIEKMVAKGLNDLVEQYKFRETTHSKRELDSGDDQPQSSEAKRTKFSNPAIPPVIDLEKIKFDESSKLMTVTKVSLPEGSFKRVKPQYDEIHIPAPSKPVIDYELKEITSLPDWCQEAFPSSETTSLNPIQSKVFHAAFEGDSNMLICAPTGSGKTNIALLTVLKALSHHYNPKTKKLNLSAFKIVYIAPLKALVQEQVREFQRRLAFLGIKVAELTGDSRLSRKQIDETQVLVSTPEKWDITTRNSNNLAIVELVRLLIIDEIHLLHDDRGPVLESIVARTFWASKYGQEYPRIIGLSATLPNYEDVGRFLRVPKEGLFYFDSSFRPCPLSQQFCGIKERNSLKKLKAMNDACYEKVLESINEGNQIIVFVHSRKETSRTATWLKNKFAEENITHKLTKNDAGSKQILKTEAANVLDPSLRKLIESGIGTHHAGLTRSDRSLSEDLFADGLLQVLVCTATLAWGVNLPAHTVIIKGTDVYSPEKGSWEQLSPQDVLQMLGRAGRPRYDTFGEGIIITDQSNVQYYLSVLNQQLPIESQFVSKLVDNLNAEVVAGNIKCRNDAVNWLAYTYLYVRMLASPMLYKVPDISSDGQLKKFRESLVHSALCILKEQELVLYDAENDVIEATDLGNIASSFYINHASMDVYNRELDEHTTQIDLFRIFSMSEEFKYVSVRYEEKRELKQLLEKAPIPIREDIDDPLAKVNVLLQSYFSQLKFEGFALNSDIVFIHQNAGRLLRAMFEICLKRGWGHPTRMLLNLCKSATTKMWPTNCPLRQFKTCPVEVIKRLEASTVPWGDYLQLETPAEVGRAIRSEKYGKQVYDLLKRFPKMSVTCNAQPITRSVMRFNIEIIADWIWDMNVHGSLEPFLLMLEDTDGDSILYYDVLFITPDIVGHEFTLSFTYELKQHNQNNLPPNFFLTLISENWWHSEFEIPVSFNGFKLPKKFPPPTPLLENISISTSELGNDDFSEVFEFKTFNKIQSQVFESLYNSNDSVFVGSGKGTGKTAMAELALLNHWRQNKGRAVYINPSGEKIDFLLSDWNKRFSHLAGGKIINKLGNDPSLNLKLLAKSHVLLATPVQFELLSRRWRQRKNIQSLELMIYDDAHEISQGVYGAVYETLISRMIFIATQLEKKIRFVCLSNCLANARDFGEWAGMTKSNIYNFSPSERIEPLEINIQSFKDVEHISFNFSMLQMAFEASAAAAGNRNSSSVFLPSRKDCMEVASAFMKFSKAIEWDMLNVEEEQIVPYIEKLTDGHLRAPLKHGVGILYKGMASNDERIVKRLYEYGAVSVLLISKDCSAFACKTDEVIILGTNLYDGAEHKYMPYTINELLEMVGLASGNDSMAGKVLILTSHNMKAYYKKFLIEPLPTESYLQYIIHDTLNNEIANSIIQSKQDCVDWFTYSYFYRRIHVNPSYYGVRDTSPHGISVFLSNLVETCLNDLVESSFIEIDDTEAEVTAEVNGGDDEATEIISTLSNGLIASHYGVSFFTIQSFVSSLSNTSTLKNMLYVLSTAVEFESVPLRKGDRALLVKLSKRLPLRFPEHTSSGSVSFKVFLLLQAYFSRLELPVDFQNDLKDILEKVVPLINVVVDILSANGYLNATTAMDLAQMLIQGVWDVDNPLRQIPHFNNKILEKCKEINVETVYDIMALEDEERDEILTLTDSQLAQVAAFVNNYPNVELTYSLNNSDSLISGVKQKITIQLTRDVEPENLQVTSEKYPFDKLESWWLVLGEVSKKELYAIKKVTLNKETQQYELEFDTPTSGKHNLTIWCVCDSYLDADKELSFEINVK
UniProt Q12309: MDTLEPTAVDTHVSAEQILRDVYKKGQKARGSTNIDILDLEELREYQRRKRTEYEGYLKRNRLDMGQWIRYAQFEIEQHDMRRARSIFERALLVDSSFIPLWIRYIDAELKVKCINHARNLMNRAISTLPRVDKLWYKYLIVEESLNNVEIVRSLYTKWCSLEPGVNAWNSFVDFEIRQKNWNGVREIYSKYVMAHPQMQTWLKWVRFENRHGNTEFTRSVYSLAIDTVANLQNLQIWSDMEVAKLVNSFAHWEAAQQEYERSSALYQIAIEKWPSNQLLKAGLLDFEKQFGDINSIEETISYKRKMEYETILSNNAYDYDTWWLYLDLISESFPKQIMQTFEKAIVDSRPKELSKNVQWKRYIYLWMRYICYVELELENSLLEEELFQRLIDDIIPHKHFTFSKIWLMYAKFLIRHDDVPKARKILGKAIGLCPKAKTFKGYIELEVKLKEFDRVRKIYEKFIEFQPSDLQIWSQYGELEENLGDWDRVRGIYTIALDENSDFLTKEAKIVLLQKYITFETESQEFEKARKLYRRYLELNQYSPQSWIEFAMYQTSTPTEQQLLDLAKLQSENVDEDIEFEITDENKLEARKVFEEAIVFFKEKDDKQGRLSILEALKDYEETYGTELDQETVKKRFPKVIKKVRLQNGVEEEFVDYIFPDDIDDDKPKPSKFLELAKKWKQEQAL
UniProt P32523: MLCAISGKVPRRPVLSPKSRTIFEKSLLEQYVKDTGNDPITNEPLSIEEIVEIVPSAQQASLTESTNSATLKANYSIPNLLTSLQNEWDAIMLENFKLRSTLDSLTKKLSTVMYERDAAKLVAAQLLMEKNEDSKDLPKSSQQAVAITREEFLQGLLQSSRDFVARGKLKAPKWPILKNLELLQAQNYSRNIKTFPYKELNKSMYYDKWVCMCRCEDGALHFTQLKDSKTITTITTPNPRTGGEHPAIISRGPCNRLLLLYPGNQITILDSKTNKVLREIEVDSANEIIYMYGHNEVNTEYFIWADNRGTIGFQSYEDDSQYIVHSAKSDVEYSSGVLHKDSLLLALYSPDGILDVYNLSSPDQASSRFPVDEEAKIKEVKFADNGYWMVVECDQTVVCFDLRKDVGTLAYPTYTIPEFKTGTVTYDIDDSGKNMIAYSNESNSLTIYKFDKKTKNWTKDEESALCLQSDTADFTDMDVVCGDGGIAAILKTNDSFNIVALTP
UniProt Q12417: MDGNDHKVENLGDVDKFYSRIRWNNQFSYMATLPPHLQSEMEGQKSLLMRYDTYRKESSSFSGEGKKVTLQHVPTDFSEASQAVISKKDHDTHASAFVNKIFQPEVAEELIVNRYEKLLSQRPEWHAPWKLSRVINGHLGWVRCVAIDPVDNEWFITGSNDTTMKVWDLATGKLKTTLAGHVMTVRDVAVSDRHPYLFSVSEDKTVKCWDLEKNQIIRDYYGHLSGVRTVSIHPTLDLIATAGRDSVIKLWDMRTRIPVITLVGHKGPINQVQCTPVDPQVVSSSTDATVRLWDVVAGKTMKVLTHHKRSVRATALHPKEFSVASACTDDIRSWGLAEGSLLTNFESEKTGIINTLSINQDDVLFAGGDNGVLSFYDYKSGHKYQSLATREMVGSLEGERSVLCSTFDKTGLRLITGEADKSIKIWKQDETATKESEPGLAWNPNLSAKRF

T1: Prp45ΔCTR (residues 1-169) with biotin ligase BirA at the C-terminus (S. cerevisiae) (UniProt P28004)
T1 sequence: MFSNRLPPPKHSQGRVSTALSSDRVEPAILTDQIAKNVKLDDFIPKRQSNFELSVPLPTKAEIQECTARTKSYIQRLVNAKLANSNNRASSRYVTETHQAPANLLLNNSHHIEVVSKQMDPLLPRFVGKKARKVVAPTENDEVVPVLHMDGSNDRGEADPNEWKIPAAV


Experiments:
[1] = molecular target: T1, Prp45ΔCTR (residues 1-169) with biotin ligase BirA at the C-terminus (S. cerevisiae); experiment: proximity labelling
[2] = molecular target: full-length Prp45 with biotin ligase BirA at the C-terminus (S. cerevisiae) (UniProt P28004); experiment: proximity labelling

binding [1]	binding [2]	Molecule
binds	binds	Brr2 (from UniProt P32639 1-2163)
binds	binds	Clf1 (from UniProt Q12309 1-687)
–	binds	Prp19 (from UniProt P32523 1-503)
binds	binds	Prp46 (from UniProt Q12417 1-451)
no binding	–	Bre1 (enzyme, UniProt Q07457 1-700) MTAEPATKKIKLELSDPSEPLTQSDVIAFQKEALFRCINRRRVDFEALRKQYELSRRECIDVSRKLANIMALIVTLARFIETFCTDANEKQLCREIAQGDETLIVQRSDSFMKLLTKYGKPNTTDSNTNSNASDHIQELTTELKNLRKSKEELFYENSQLTEEISALKEYYTNIIRKYDRDESFTIKRVFKEDKTDAVKELREDEKESNENNIKSGNKDSSAINGDNTSKKSEKGDELVQAEDERKEDAENEKLELDLKFSDLRAEINSLSSTIKDLENIRRENEEELIKTRSEVSNLKKQQIAAADQDPDFKSYDHESLLAKIQHLTEQNAELSEINSSFLSKFQVLAKEKEIYTKKVREEFQKSLDSLVEMNSSLEKDVVRIRTARDDLLSKIAILEAEKSKTEVLSDLQHAIDILKEQWTKIDQRSNDTKSSSTQDALIKEIQDLEKGFRELSDLTHKKYSEIINHESVISKLTVEKTKADQKYFAAMRSKDSILIEIKTLSKSLSKSNELILQLKDSDRLLQQKIGNLHKQLDLSQNNERRLIDSSKTETLKIIDLNNTSTKLKRSLEKLQEESNKSIADMTHLETKLNDTEIELKHFKQKASHLESKCEKLHDTLFRGNNKNKGSSDEALVEELANFRTLVYCSLCSKNWKNMAIKTCGHVFCENCCKERLAARMRKCPTCNKAFSSNDLLTVHL
binds	binds	Spp2 (protein, UniProt Q02521 1-185) MSKFSLKLGSKTLKKNISKKTKKKNSLQKANLFDWDDAETASLSHKPQSKIKIQSIDKFDLDEESSSKKKLVIKLSENADTKKNDAPLVEYVTEKEYNEVPVEEFGDALLRGMGWESDSEQDSKGDKTQSRNKDVSNVSQIHPDGLGIGAKLNKAINVEEASFMPVVKIDKITGTKVDDDKKNKS
